In PMC7765489, “Structural Characterization of Glycerol Kinase from the Thermophilic Fungus Chaetomium thermophilum” (International Journal of Molecular Sciences, 2020):
No constants are given. Whether binding was seen depends on the method and setting. Some entries that bind do so weakly or less than the wild type.

How the values were obtained:
[1] = molecular target: glycerol kinase from Chaetomium thermophilum (Chaetomium thermophilum) (UniProt G0SAG9); assay: SEC; analytical gel filtration of CtGK in the presence of fructose-1,6-bisphosphate (FBP); conditions not shown; both purified
[2] = molecular target: glycerol kinase from Chaetomium thermophilum (Chaetomium thermophilum) (UniProt G0SAG9); assay: crystal structure; sitting-drop vapor diffusion at 293 K, 0.2 M CaCl2 and 18% PEG 3350; apo (ethylene glycol cryoprotectant) and glycerol-bound crystals, five space groups; in P3(2)21 and P222(1) the dimer is completed by a symmetry-related chain; both purified

B1: glycerol kinase from Chaetomium thermophilum (enzyme, UniProt G0SAG9 67-590, looked up)
chain: FVGSIDQGTTSSRFLIFNGEGNPVASHQIEFENLYPKSGWHEQDPYELLNSVQQCIDGAMHKFASLGYSKENIRAIGITNQRETTVVWDSVTGEPLHNAIVWPDTRTSALVRELKARQSADSLLELCGLPLSTYPSSVKLLWLIQNVDAVKQAYEEGRLAFGTVDSWLIYKLNGGAQAERPIHVTDSTNASRTMFMNLRTLQYDDKLLGFFGIDRNKIKLPKIVPSSDPEAFGKVATGALAGVPIAGCLGDQSSALVGQCGFSPGQAKNTYGTGCFLLYNVGTEPVISKYGLLATVAYDFGRGRKPVYALEGSIAVAGAGITFLMNNLGFAPKPSEINALAESVLDNGGVVFVTAFSGLFAPYWIDDAKGTLFGITQHTTKGHIARATLEATCYQTRAILDAMEKDSGHKLESLAVDGGLSASDLCMQTQADISGIPVDRPRMRETTALGAAIAAGLATGVWRELDHVKESIAGGANGNGKKNAREVFYPKMDRKKAERLFRKWEQAVEMSRGWVREQEEEDGE
notes: glycerol kinase, Chaetomium thermophilum, UniProt G0SAG9, residues 67-590; codon-optimised synthetic gene in pET24d with N-terminal His-Tag and TEV site; The crystal models begin at residue 65 (67 for chain B) although the construct is stated as 67-590; also called CtGK; GK; source: E. coli BL21 (DE3), purified (Ni-Sepharose, TEV cleavage, second Ni-Sepharose, gel filtration on Superdex 75); not …
[1]
  binding: binds
[2]
  binding: binds
